# Measured values: the supplement of paper PMC8728848
# Some of the results follow.
# B1: TAL6-6LysM (Trichoderma atroviride) (protein)
# chain: AASKLGVPQPAQRDQVNCQLYAVQPNDNCIDISSKNNITYAQLLSWNPSLSSTCSNLASLNSSSICVSNPKGTFSISSNTVGATDIATTTAPVPSPTLDQTTSRCAKYYQVSDGDDCSHLTAQFAITLKDFIFLNSEVWQNCTNLELGYYYCVEPVGYISTYPGYLPTATTKPFNQTSATSLPYDGDPWARFSSNSSVIPIANGTRVDCYSYVYVKNLTENLFADCWNMASMYEITREELVLWNPSLGNDGSSGSNLSGAEASQVASSIAIPTTAPSSITTNLYTYPCTVAANISYCVALVSSTGALPTNTAPPGPHASGEISNCTAWFAPEAYDTCKSILDIFEMSFANFYKMNPSVGPDCSGLAVGTNYCVSTYPNGEDPNDDWDGDDSIPSISPTGIITPTPTQSGMVSNCNKFYDVHSNDGCSAIASSQHVDLSSLYKWNPAIKTDCSGLQASVYVCIGILTTSMSTTSKLPTTTSKPSTTSKPPTGITTPTPTQSGMVKNCNKFYDVHSGDGCSAIASSQKVNLSSFYLWNPAVKTDCSGLQASVFVCIGTLTTSMSTTTSKLPTTTSKPSTTSKPPTGIITPTPTQNGMVKNCNKFYDVHSGDGCSAIASSQKVNLSSFYLWNPAVKTDCSGLQASVFVCVGTATTTTAAGITTPTPTQSGMVSGCNKFYDVHAGDGCSAIASSQKIALSSLYKWNPAVKTDCSGLQASVYICIGVGNAAAARVTGAAASFLEQKLISEEDLNSAVDHHHHHH
# Key:
# Test in all cases: glycan array binding signal (z-score within array); higher = stronger binding
# Settings in all cases: glycan notation: IUPAC condensed, linker removed
# [1] = target: GlcNAc(b1-2)Gal(b1-3)GalNAc
# In short: (§1)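 Glycan array binding is given as a within-array Z-score, which can be read as non-binding when negative. The arrays, 3228 of them, came from the Consortium for Functional Glycomics database and were retained only where the protein sequence was available. Z-scores were averaged across arrays of the same protein sequence at different concentrations or buffers and across linkers.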
# [2] = target: GlcNAc(b1-2)Man(a1-3)[GlcNAc(b1-2)Man(a1-6)]Man(b1-4)GlcNAc(b1-4)GlcNAc
# In short: as §1
# [3] = target: GlcNAc(b1-2)Man(a1-3)[GlcNAc(b1-2)Man(a1-6)]Man(b1-4)GlcNAc(b1-4)[Fuc(a1-6)]GlcNAc
# In short: as §1
# [4] = target: GlcNAc(b1-2)Man(a1-3)[GlcNAc(b1-4)][GlcNAc(b1-2)Man(a1-6)]Man(b1-4)GlcNAc(b1-4)GlcNAc
# In short: as §1
# [5] = target: GlcNAc(b1-2)Man(a1-3)[GlcNAc(b1-4)][GlcNAc(b1-2)Man(a1-6)]Man(b1-4)GlcNAc(b1-4)[Fuc(a1-6)]GlcNAc
# In short: as §1
# [6] = target: GlcNAc(b1-2)[GlcNAc(b1-4)]Man(a1-3)[GlcNAc(b1-2)Man(a1-6)]Man(b1-4)GlcNAc(b1-4)GlcNAc
# In short: as §1
# [7] = target: GlcNAc(b1-2)[GlcNAc(b1-4)]Man(a1-3)[GlcNAc(b1-4)][GlcNAc(b1-2)Man(a1-6)]Man(b1-4)GlcNAc(b1-4)GlcNAc
# In short: as §1
# [8] = target: GlcNAc(b1-2)[GlcNAc(b1-4)]Man(a1-3)[GlcNAc(b1-4)][GlcNAc(b1-2)[GlcNAc(b1-6)]Man(a1-6)]Man(b1-4)GlcNAc(b1-4)GlcNAc
# In short: as §1
# [9] = target: GlcNAc(b1-2)[GlcNAc(b1-4)]Man(a1-3)[GlcNAc(b1-4)][GlcNAc(b1-2)[GlcNAc(b1-6)]Man(a1-6)]Man(b1-4)GlcNAc(b1-4)[Fuc(a1-6)]GlcNAc
# In short: as §1
# [10] = target: GlcNAc(b1-2)[GlcNAc(b1-6)]Man(a1-6)[GlcNAc(b1-2)Man(a1-3)]Man(b1-4)GlcNAc(b1-4)GlcNAc
# In short: as §1
# [11] = target: GlcNAc(b1-2)[GlcNAc(b1-6)]Man(a1-6)[GlcNAc(b1-2)Man(a1-3)]Man(b1-4)GlcNAc(b1-4)[Fuc(a1-6)]GlcNAc
# In short: as §1
# [12] = target: GlcNAc(b1-2)[GlcNAc(b1-6)]Man(a1-6)[GlcNAc(b1-4)][GlcNAc(b1-2)Man(a1-3)]Man(b1-4)GlcNAc(b1-4)GlcNAc
# In short: as §1
# GlcNAc(b1-3)Fuc = target: GlcNAc(b1-3)Fuc
# In short: as §1
# GlcNAc(b1-3)Gal = target: GlcNAc(b1-3)Gal
# In short: as §1
# [13] = target: GlcNAc(b1-3)Gal(b1-3)GalNAc
# In short: as §1
# GlcNAc(b1-3)Gal(b1-4)Glc = target: GlcNAc(b1-3)Gal(b1-4)Glc
# In short: as §1
# [14] = target: GlcNAc(b1-3)Gal(b1-4)GlcNAc
# In short: as §1
# [15] = target: GlcNAc(b1-3)Gal(b1-4)GlcNAc(b1-2)Man(a1-3)[GlcNAc(b1-3)Gal(b1-4)GlcNAc(b1-2)Man(a1-6)]Man(b1-4)GlcNAc(b1-4)GlcNAc
# In short: as §1
# [16] = target: GlcNAc(b1-3)Gal(b1-4)GlcNAc(b1-2)Man(a1-3)[GlcNAc(b1-3)Gal(b1-4)GlcNAc(b1-2)Man(a1-6)]Man(b1-4)GlcNAc(b1-4)[Fuc(a1-6)]GlcNAc
# In short: as §1
# [17] = target: GlcNAc(b1-3)Gal(b1-4)GlcNAc(b1-2)[GlcNAc(b1-3)Gal(b1-4)GlcNAc(b1-6)]Man(a1-6)[GlcNAc(b1-3)Gal(b1-4)GlcNAc(b1-2)Man(a1-3)]Man(b1-4)GlcNAc(b1-4)GlcNAc
# In short: as §1
# [18] = target: GlcNAc(b1-3)Gal(b1-4)GlcNAc(b1-3)Gal(b1-4)GlcNAc
# In short: as §1
# [19] = target: GlcNAc(b1-3)Gal(b1-4)GlcNAc(b1-3)Gal(b1-4)GlcNAc(b1-2)Man(a1-3)[GlcNAc(b1-3)Gal(b1-4)GlcNAc(b1-3)Gal(b1-4)GlcNAc(b1-2)Man(a1-6)]Man(b1-4)GlcNAc(b1-4)GlcNAc
# In short: as §1
# [20] = target: GlcNAc(b1-3)Gal(b1-4)GlcNAc(b1-3)Gal(b1-4)GlcNAc(b1-2)Man(a1-3)[GlcNAc(b1-3)Gal(b1-4)GlcNAc(b1-3)Gal(b1-4)GlcNAc(b1-2)Man(a1-6)]Man(b1-4)GlcNAc(b1-4)[Fuc(a1-6)]GlcNAc
# In short: as §1
# [21] = target: GlcNAc(b1-3)Gal(b1-4)GlcNAc(b1-3)Gal(b1-4)GlcNAc(b1-2)[GlcNAc(b1-3)Gal(b1-4)GlcNAc(b1-3)Gal(b1-4)GlcNAc(b1-6)]Man(a1-6)[GlcNAc(b1-3)Gal(b1-4)GlcNAc(b1-3)Gal(b1-4)GlcNAc(b1-2)Man(a1-3)]Man(b1-4)GlcNAc(b1-4)[Fuc(a1-6)]GlcNAc
# In short: as §1
# [22] = target: GlcNAc(b1-3)Gal(b1-4)GlcNAc(b1-3)Gal(b1-4)GlcNAc(b1-3)Gal(b1-4)GlcNAc(b1-2)Man(a1-3)[GlcNAc(b1-3)Gal(b1-4)GlcNAc(b1-3)Gal(b1-4)GlcNAc(b1-3)Gal(b1-4)GlcNAc(b1-2)Man(a1-6)]Man(b1-4)GlcNAc(b1-4)GlcNAc
# In short: as §1
# [23] = target: GlcNAc(b1-3)Gal(b1-4)GlcNAc(b1-3)Gal(b1-4)GlcNAc(b1-3)Gal(b1-4)GlcNAc(b1-2)Man(a1-3)[GlcNAc(b1-3)Gal(b1-4)GlcNAc(b1-3)Gal(b1-4)GlcNAc(b1-3)Gal(b1-4)GlcNAc(b1-2)Man(a1-6)]Man(b1-4)GlcNAc(b1-4)[Fuc(a1-6)]GlcNAc
# In short: as §1
# [24] = target: GlcNAc(b1-3)Gal(b1-4)GlcNAc(b1-3)Gal(b1-4)GlcNAc(b1-3)Gal(b1-4)GlcNAc(b1-2)[GlcNAc(b1-3)Gal(b1-4)GlcNAc(b1-3)Gal(b1-4)GlcNAc(b1-3)Gal(b1-4)GlcNAc(b1-6)]Man(a1-6)[GlcNAc(b1-3)Gal(b1-4)GlcNAc(b1-3)Gal(b1-4)GlcNAc(b1-3)Gal(b1-4)GlcNAc(b1-2)Man(a1-3)]Man(b1-4)GlcNAc(b1-4)[Fuc(a1-6)]GlcNAc
# In short: as §1
# [25] = target: GlcNAc(b1-3)Gal(b1-4)GlcNAc(b1-3)Gal(b1-4)GlcNAc(b1-3)Gal(b1-4)GlcNAc(b1-3)Gal(b1-4)GlcNAc(b1-2)Man(a1-3)[GlcNAc(b1-3)Gal(b1-4)GlcNAc(b1-3)Gal(b1-4)GlcNAc(b1-3)Gal(b1-4)GlcNAc(b1-3)Gal(b1-4)GlcNAc(b1-2)Man(a1-6)]Man(b1-4)GlcNAc(b1-4)GlcNAc
# In short: as §1
# [26] = target: GlcNAc(b1-3)Gal(b1-4)GlcNAc(b1-3)Gal(b1-4)GlcNAc(b1-3)Gal(b1-4)GlcNAc(b1-3)Gal(b1-4)GlcNAc(b1-2)Man(a1-3)[GlcNAc(b1-3)Gal(b1-4)GlcNAc(b1-3)Gal(b1-4)GlcNAc(b1-3)Gal(b1-4)GlcNAc(b1-3)Gal(b1-4)GlcNAc(b1-2)Man(a1-6)]Man(b1-4)GlcNAc(b1-4)[Fuc(a1-6)]GlcNAc
# In short: as §1
# [27] = target: GlcNAc(b1-3)Gal(b1-4)GlcNAc(b1-3)Gal(b1-4)GlcNAc(b1-3)Gal(b1-4)GlcNAc(b1-3)Gal(b1-4)GlcNAc(b1-2)[GlcNAc(b1-3)Gal(b1-4)GlcNAc(b1-3)Gal(b1-4)GlcNAc(b1-3)Gal(b1-4)GlcNAc(b1-3)Gal(b1-4)GlcNAc(b1-6)]Man(a1-6)[GlcNAc(b1-3)Gal(b1-4)GlcNAc(b1-3)Gal(b1-4)GlcNAc(b1-3)Gal(b1-4)GlcNAc(b1-3)Gal(b1-4)GlcNAc(b1-2)Man(a1-3)]Man(b1-4)GlcNAc(b1-4)[Fuc(a1-6)]GlcNAc
# In short: as §1
binder,measurement,setting,value
B1,glycan array binding signal (z-score),[1],-0.296
same,glycan array binding signal (z-score),[2],0.42
same,glycan array binding signal (z-score),[3],0.128
same,glycan array binding signal (z-score),[4],-1.17
same,glycan array binding signal (z-score),[5],-0.838
same,glycan array binding signal (z-score),[6],-0.559
same,glycan array binding signal (z-score),[7],1.15
same,glycan array binding signal (z-score),[8],0.223
same,glycan array binding signal (z-score),[9],0.451
same,glycan array binding signal (z-score),[10],-1.16
same,glycan array binding signal (z-score),[11],1.14
same,glycan array binding signal (z-score),[12],-0.275
same,glycan array binding signal (z-score),GlcNAc(b1-3)Fuc,-0.654
same,glycan array binding signal (z-score),GlcNAc(b1-3)Gal,-0.362
same,glycan array binding signal (z-score),[13],0.061
same,glycan array binding signal (z-score),GlcNAc(b1-3)Gal(b1-4)Glc,0.268
same,glycan array binding signal (z-score),[14],0.021
same,glycan array binding signal (z-score),[15],-1.2
same,glycan array binding signal (z-score),[16],0.823
same,glycan array binding signal (z-score),[17],1.76
same,glycan array binding signal (z-score),[18],0.291
same,glycan array binding signal (z-score),[19],0.252
same,glycan array binding signal (z-score),[20],0.195
same,glycan array binding signal (z-score),[21],-0.539
same,glycan array binding signal (z-score),[22],0.512
same,glycan array binding signal (z-score),[23],-0.35
same,glycan array binding signal (z-score),[24],-0.373
same,glycan array binding signal (z-score),[25],-0.734
same,glycan array binding signal (z-score),[26],1.32
same,glycan array binding signal (z-score),[27],2.31

# Reformatted: results already given
binder | measurement | setting | value
B1 | glycan array binding signal (z-score) | [2] | 0.42
same | glycan array binding signal (z-score) | [8] | 0.223
